Values of other authors as cited in patent publication US11786494B2, “Methods of modulation of branched chain acids and uses thereof” (Baylor College of Medicine, priority 2009, dated 2023).
Some entries share one result that the patent states for a list of compounds.

Settings: after oral administration of phenylbutyrate; cited from earlier work

Structure (SMILES): O=C(O)Cc1ccccc1 [phenylacetate]
- time at which measurable plasma levels are detected: 30 to 60 min
